At least one structure is not confirmed: it was looked up by name or label, or the drawing left a doubt.
Experiments:
[1] = system: pancreatic cancer cell line (Panc1) cells; test: reactive oxygen species (ROS) levels in Panc1 cells; type: cell-based; conditions: standard culture conditions, 25 mM glucose and 0.81 mM magnesium ion
Description: ROS levels were measured by measuring 2′,7′-dichlorodihydrofluorescein diacetate (DCFDA) or MitoSOX as previously described (Zarei et al. (2017) Cancer Res; 77(16) 4460-4471).
Importantly, these low magnesium ion and low glucose conditions were consistent with the pancreatic cancer tumor microenvironment (FIG. 6).

Amino acid sequences for entries named in this document (tags omitted). Residues count along the entry.
UniProt O75874, 2-414: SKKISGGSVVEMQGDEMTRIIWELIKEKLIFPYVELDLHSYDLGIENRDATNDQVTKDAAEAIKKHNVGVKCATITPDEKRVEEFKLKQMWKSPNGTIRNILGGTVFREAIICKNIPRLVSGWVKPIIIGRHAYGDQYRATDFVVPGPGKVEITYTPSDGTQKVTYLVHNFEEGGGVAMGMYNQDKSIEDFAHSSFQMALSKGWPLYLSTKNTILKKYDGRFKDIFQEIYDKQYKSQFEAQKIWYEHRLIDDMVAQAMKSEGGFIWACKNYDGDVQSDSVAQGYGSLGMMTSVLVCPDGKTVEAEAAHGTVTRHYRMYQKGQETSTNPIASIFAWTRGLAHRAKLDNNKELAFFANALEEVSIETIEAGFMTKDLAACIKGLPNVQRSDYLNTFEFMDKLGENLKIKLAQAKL

pancreatic cancer cells = test: colony formation assay of pancreatic cancer cells; type: cell-based
wild type IDH1 = molecular target: T1, wild type IDH1 (Homo sapiens, UniProt O75874); test: thermal shift assay in pancreatic cells; type: binding; conditions: 1 μM, low Mg2+ 0.08 mM
T1 construct: endogenous in cells; host or cells: MiaPaCa2

[2] = system: colon cancer expressing wild type IDH1; test: colon cancer in vivo model
[3] = system: H460 large cell lung adenocarcinoma xenografts expressing wild type IDH1; test: H460 lung xenografts; conditions: in vivo
[4] = system: A2700 human ovarian cancer xenografts expressing wild type IDH1; conditions: prior art drawing; cited from earlier work
[5] = system: TS603 glioma cell line with IDH1 mutation; conditions: published xenograft experiment, comparable dose; cited from earlier work
mutant IDH1 = conditions: standard culture conditions, prior art; cited from earlier work

Structure (SMILES): N#Cc1ccnc(N2C(=O)CC[C@H]2C(=O)N(c2cncc(F)c2)[C@H](C(=O)NC2CC(F)(F)C2)c2ccccc2Cl)c1 [AG-120, Ivosidenib]
- induction of reactive oxygen species (ROS) [1]: did not induce
- growth of pancreatic cancer cells (colony formation) (pancreatic cancer cells; 1 μM, low magnesium 0.08 mM, low glucose 2.5 mM): completely abrogates any chance at growth
- cell killing (pancreatic cancer cells; high nutrient or standard cell culture conditions): ineffective
- stabilization of IDH1 wild type protein at high temperatures (wild type IDH1): stabilization
- efficacy as monotherapy in colon cancer [2]: effective
- inhibition of H460 xenografts [3]: inhibits
- inhibition of A2700 ovarian cancer xenografts [4]: inhibits
- inhibition of TS603 IDH1 mutant glioma [5]: inhibits
- potency for mutant IDH1 compared to wild type IDH1 (mutant IDH1): 100 fold

Source: patent publication US12168005B2, “Methods for treating wild type isocitrate dehydrogenase 1 cancers” (University Hospitals Cleveland Medical Center, priority 2019, dated 2024)
